In article PMC6038951:
No constants are given. Whether binding was seen depends on the method and setting. Where a sequence is shown, tags or fusion partners need not be part of it.

Target: Mycobacterium tuberculosis methionyl-tRNA synthetase with a single N-terminal 6×His tag (Mycobacterium tuberculosis H37RV) (UniProt P9WFU5)
Experiment: SEC; Superdex 200 300/10 GL column calibrated with protein standards (thyroglobulin, γ-globulin, ovalbumin, myoglobin, vitamin B12); mass from SEC 60.3 kDa against theoretical 59.3 kDa; both purified

B1: Mycobacterium tuberculosis methionyl-tRNA synthetase with a single N-terminal 6×His tag (enzyme, UniProt P9WFU5 1-519)
chain: MKPYYVTTAIAYPNAAPHVGHAYEYIATDAIARFKRLDRYDVRFLTGTDEHGLKVAQAAAAAGVPTAALARRNSDVFQRMQEALNISFDRFIRTTDADHHEASKELWRRMSAAGDIYLDNYSGWYSVRDERFFVESETQLVDGTRLTVETGTPVTWTEEQTYFFRLSAYTDKLLAHYHANPDFIAPETRRNEVISFVSGGLDDLSISRTSFDWGVQVPEHPDHVMYVWVDALTNYLTGAGFPDTDSELFRRYWPADLHMIGKDIIRFHAVYWPAFLMSAGIELPRRIFAHGFLHNRGEKMSKSVGNIVDPVALAEALGVDQVRYFLLREVPFGQDGSYSDEAIVTRINTDLANELGNLAQRSLSMVAKNLDGRVPNPGEFADADAALLATADGLLERVRGHFDAQAMHLALEAIWLMLGDANKYFSVQQPWVLRKSESEADQARFRTTLYVTCEVVRIAALLIQPVMPESAGKILDLLGQAPNQRSFAAVGVRLTPGTALPPPTGVFPRYQPPQPPEGK
Q: How did the binding turn out when B1 was run?
A: no binding
